Drawing on doi:10.1101/2024.05.10.593590, this text covers binding result, binding signal (fold weaker than K+) and Kd for six sequences.

pKd: −log10 of the molar value. Protein sequences can lack the tags named with them. For part of these data: The exact form of at least one protein or probe is not confirmed. For part of these data: Weaker means in comparison with the reference protein, sequence or condition of that experiment. For part of these data: At least one verdict rests on a figure or table, not on a statement of the authors. For part of these data: Whether high values mean tight binding is not given here for every scale.

The target in data set [1] is T1, RGG1 (minimal first RGG/RG motif) (human) (UniProt Q00839).
T1 sequence (looked up, limits assumed): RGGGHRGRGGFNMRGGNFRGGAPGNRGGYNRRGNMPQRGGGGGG
Nature of the data set: fluorescence anisotropy. The settings on record: for pKd: described as significantly weaker. A general note: Fluorescence polarisation rises when a labelled molecule tumbles more slowly, as on binding a larger partner.

A further data set concerns the target T2, U(702-745) (human) (UniProt Q00839).
T2 sequence (looked up): T1 sequence (looked up, limits assumed)
Put plainly: fluorescence anisotropy. The conditions noted are these: K+, unsaturated curve; residues 702-745.

The target of a further data set is T3, U(702-761) (human) (UniProt Q00839).
T3 sequence (looked up): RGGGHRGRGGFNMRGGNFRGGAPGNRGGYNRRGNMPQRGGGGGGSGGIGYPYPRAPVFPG
Nature of the data set: fluorescence anisotropy. The settings on record: K+, unsaturated curve; residues 702-761.

Data set [2] deals with T1, RGG1 (minimal first RGG/RG motif) (human). Nature of the data set: EMSA. The settings on record: higher-order complex only. On the technique in general: A gel shift assay detects complexes by their altered migration in electrophoresis.

“GGAGCUGCGGUGUGGAAGGAGUGGUCGGGUUGCGCAGCG [SC1]”: the binding result in data set [1] (K+, first transition, value only in figure) is on record as “binds”. This sequence also gave a binding signal (fold weaker than K+) in data set [1] (Li+ instead of K+, text says FMRP peptide, Fig 4 legend says RGG1) greater than 300.

With “GGCUACACCAUUAGGAUGUCCUGAUCCAACAUCGAGGUCGUAAACCCUAUUGUCAAUAUGGACUCUAGAAUAGGAUUGCGCUGUUAUCCCUAGGGUAACUUGUUCCGUUGAUCAAAUUAUUGGGUCAAUAUAUGUAUAG [Antisense MTRNR2L6]”, the pKd – broadly, the negative decadic logarithm of the Kd, by convention in mol/L – is less than 4.89 with U(702-745) (human) and less than 5.05 with U(702-761) (human).

With “GCUAUACAUAUAUUGACCCAAUAAUUUGAUCAACGGAACAAGUUACCCUAGGGAUAACAGCGCAAUCCUAUUCUAGAGUCCAUAUUGACAAUAGGGUUUACGACCUCGAUGUUGGAUCAGGACAUCCUAAUGGUGUAGC [MTRNR2L6]”, the results for the pKd with U(702-745) (human) and with U(702-761) (human) were less than 4.89 and less than 4.96, respectively.

“GAGCCACCCCACCCAACCCAACCCAACCCAACCGGGGGUCACGCGGGGGCGCGCGCGCGCACCGGGAGCGCGCUCGGAGGCGAGUGGAACUGGAUCGGGUUUGCUGCCAGCGGCGUGAGCUUC [Syncrip GtoC]”: the binding result in data set [2] is recorded as “binds more weakly”. In data set [1] (K+), the negative logarithm of the Kd (pKd) is less than 5.00.

Take “GGGGGUCACGCGGGGGCGCGCGCGCGCACCGGGAGCGCGCUCGGAGGCGAGUGGAACUGGAUCGGGUUUGCUGCCAGCGGCGUGAGCUUC [Syncrip ΔG-quad]”: the binding result in data set [2] is recorded as “binds more weakly”. The sequence also gave a negative logarithm of the Kd (pKd) in data set [1] (K+) of less than 5.00.

As to “GAAGCUCACGCCGCUGGCAGCAAACCCGAUCCAGUUCCACUCGCCUCCGAGCGCGCUCCCGGUGCGCGCGCGCGCCCCCGCGUGACCCCCCCUUCCCUUCCCUUCCCUUCCCUCCCCUCCCUC [Antisense Syncrip]”, the pKd was less than 4.59 with U(702-745) (human) and less than 4.68 in the data set with U(702-761) (human).
